According to US20250154200A1, “CYCLIC PEPTIDE FOR CANCER IMMUNOTHERAPY” (Kansas State University Research Foundation, priority 2021, published 2025):

Key:
[1] = system: LLC tumors in mouse lungs; assay: Orthotopic LLC cell allograft growth in mouse lung; format: in vivo
Experimental: For in vivo studies, the effect of CTLA-4ip peptide on the tumor growth in the mouse lung was evaluated using an orthotropic LLC cell allograft model. After 5 days of LLC cell inoculation, all groups of mice were pretreated with JAWS II murine dendritic cells primed with irradiated LLC cells. […] Twenty-three days after the LLC cell inoculation, mice were sacrificed and tumor burdens were evaluated by microscopic and macroscopic observation.

[2] = system: CTLA-4 expression in NK cells; assay: CTLA-4 expression in primary cultured NK cells; format: cell-based, mouse
Experimental: Natural Killer (NK) calls were isolated from C57BL/6 mouse spleen using MagniSort™ Mouse NK cell Enrichment Kit (ThermoFisher Scientific, Waltham, MA). The cells were seeded into 12-well plate and treated with 12.5 ng/ml recombinant mouse IL-2 for an induction of CTLA-4 protein expression; the expression of the CTLA-4 protein in cell surface of immune cells is very low under physiological conditions. After 24 hours, the cells were treated with 1, 10, and 20 μM CTLA-4ip. Anti-CTLA-4 antibody (aCTLA-4, 1 and 5 μg/ml) was used as a positive control treatment. PBS was used as a negative control. At 48 and 72 hours after various agent treatments, CTLA-4 expression was evaluated by Flow cytometry. The surface CTLA-4 on the cells were first stained with BV421-conjugated anti-CTLA-4 antibodies (UC10-4B9 clone). The cells were fixed with Fixation Buffer (BioLegend, San Diego, CA), permeabilizated by Intracellular Staining Permeabilization Wash Buffer (BioLegend), and stained with APC-conjugated anti-CTLA-4 antibodies (UC10-4B9 clone).

[3] = incubated with cells, LC-MS over time
[4] = system: CD4 and CD8 T cell population in tumor-bearing mouse blood; assay: Flow cytometry of T cell populations and immune checkpoint molecules in tumor-bearing mouse blood; conditions: mouse blood at end of study, 10 mg/kg/day

CC[C@H](C)[C@@H]1NC(=O)[C@H](CCC(=O)O)NC(=O)[C@H](CO)NC(=O)[C@H](Cc2ccc(O)cc2)NC(=O)[C@H](CCCNC(=N)N)NC(=O)[C@H](CCCCN)NC(=O)[C@H](C)NC(=O)[C@H](C(C)C)NC(=O)[C@H](Cc2c[nH]c3ccccc23)NC(=O)CNC(=O)[C@H]([C@@H](C)O)NC(=O)[C@@H]2CCCN2C(=O)[C@H]([C@@H](C)O)NC(=O)[C@H](CC(C)C)NC(=O)[C@H](C(C)C)NC(=O)[C@H]([C@@H](C)O)NC(=O)[C@H](CC(=O)O)NC1=O [R10]
mice with tumor nodules (macroscopic observation) ([1]; 10 mg/kg/day IP, 23 days after LLC inoculation, after JAWS-irrLLC): 4 out of 5 | Ave. number of tumor nodules ([1]; 10 mg/kg/day IP, 23 days after LLC inoculation, after JAWS-irrLLC, mean±SD): 1.60±0.80 | number and size of tumor nodules in the lungs compared to PBS treated control ([1]; 10 mg/kg/day, IP, every other day, 4 times): markedly smaller | change of CTLA-4 expression in cell surface ([2]; NK cells from the spleen, within 72 hour incubation): 4.3% | surface and intracellular expression of CTLA-4 ([2]; additional experiments out to day 5 and day 7): remaining unchanged | cytotoxicity of NK cells for H1N1-infected CT26 cells (H1N1 infected CT26 cells): better than the positive control | cellular uptake [3]: taken up by the cells | resistance to enzymatic degradation in cells [3]: resistant to enzymatic degradation | CTLA4 expression in CD8+ IFNγ+ activated cytotoxic T cell (MFI) [4]: 9.71±10.79 | CTLA4 expression in Treg (MFI) [4]: 863.02±269.34 | Treg population (CD4+ FoxP3+) [4]: 0.50±0.74% | cytotoxic T lymphocyte (CTL) population (CD8+ IFNγ+) [4]: 5.33±1.85%
